Reference: PMC4695171
These are yes or no findings as the source states them, for the method shown. In cells and extracts the contact can be indirect. A result given as binding can be weak or reduced; the word gives no strength. For some assays here: Sequences can lack the tags named with a protein. Values belong to the molecule of their own block, whether it stands above or below them.

Key:
[1] = target: T1, Madcam1-FLAG (Mucosal vascular addressin cell adhesion molecule 1, C-terminal FLAG tag) (human) (UniProt Q13477); assay: co-IP; Madcam1-FLAG co-transfected with AKT-Myc into Bel-7402 cells; reciprocal co-IP
T1 sequence: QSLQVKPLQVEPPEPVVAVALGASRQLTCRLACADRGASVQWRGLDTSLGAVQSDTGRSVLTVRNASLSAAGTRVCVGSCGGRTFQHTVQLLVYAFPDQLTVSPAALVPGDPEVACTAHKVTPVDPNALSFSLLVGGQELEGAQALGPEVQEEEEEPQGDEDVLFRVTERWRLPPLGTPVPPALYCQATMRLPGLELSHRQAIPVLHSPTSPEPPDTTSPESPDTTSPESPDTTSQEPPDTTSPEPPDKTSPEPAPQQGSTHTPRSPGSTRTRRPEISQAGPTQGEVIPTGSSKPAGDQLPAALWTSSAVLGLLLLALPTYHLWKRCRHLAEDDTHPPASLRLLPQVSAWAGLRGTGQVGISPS

AKT-Myc [2] = assay: as above
AKT-Myc [3] = assay: proximity ligation; Duolink in situ PLA on fixed Bel-7402 and SMMC-7721 cells co-transfected with AKT-Myc and Madcam1-FLAG; rabbit anti-Myc and mouse anti-FLAG
[4] = target: AKT, endogenous (human (endogenous in Bel-7402 and SMMC-7721)); assay: co-IP; endogenous AKT and Madcam1 in Bel-7402 cells; reciprocal co-IP with the indicated antibodies; control IgG as negative control
[5] = target: AKT, endogenous (human (endogenous in Bel-7402 and SMMC-7721)); assay: proximity ligation; Duolink in situ PLA on fixed Bel-7402 and SMMC-7721 cells, endogenous proteins; rabbit anti-AKT and mouse anti-Madcam1; controls with no antibody or only one antibody

binding [1]: binds
Molecule: AKT-Myc

binding (AKT-Myc [2]): binds
binding (AKT-Myc [3]): binds
B1: Madcam1-FLAG (Mucosal vascular addressin cell adhesion molecule 1, C-terminal FLAG tag) (protein, UniProt Q13477 19-382)
chain: T1 sequence

binding [4]: binds
binding [5]: binds
B2: Madcam1 (Mucosal vascular addressin cell adhesion molecule 1), endogenous (protein, UniProt Q13477 19-382)
chain: T1 sequence
